Measured values reported in PubChem BioAssay (Tox21).
“And” between values parts separate entries of the source, which are not always exact repeats. Equal values may be shown once. The inconclusive results got no clear call from the source; some entries with a clear call stand among them for comparison. Where the call is inconclusive, the potency comes from a doubtful curve fit. The source made the active and inactive calls. Calls come from the whole dose curve.

Sequences of proteins named here, by UniProt entry; tags and fusion partners are left off.
UniProt P14416, whole entry, looked up: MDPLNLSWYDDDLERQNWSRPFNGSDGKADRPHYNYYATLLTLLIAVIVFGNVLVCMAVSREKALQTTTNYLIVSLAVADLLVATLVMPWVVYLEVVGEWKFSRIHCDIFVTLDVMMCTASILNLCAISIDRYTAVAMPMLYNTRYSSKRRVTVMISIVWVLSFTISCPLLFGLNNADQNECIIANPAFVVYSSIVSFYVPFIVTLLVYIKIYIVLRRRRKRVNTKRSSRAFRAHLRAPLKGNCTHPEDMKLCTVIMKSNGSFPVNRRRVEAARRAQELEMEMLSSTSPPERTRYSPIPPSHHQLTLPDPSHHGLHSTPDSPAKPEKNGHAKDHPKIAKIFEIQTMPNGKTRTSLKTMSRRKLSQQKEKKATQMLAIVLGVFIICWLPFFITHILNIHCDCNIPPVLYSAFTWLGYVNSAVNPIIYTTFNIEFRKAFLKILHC

These molecules were tested against D(2) dopamine receptor (Homo sapiens) (UniProt P14416) (assay: Dopamine D2 receptor (DRD2) small molecule agonists, cell-based qHTS assay (AID 1963594; note: nearly all actives have a fitted effect of over 35% in size)). Details: HEK293-DRD2 cAMP HTRF, agonist mode, 30 min; activation: at 92.4 µM (top of the series) unless noted.
From the text: National Center for Advancing Translational Sciences [NCATS]
Division of Preclinical Innovation [DPI]
U.S. Environmental Protection Agency [EPA]
National Institutes of Environmental Health Sciences [NIEHS]
National Toxicology Program [NTP]
U.S. Food and Drug Administration [FDA]
DRD2 is the D2 subtype of the dopamine receptor, which is coupled to Gi subtype of G protein-coupled receptor. This G protein-coupled receptor inhibits adenylyl cyclase activity. The DRD2-HEK293 cell line stably expressing D2 dopamine receptor can be used for screening agonists and antagonists of interactions between D2 and its ligands. The Hek293-DRD2 cAMP assay is based on HTRF technology. It measures changes of cAMP accumulation in response to Gi coupled GPCR activation or inhibition.
Tox21 Assay Protocol Summary:
DRD2-Hek293 cells were dispensed at 600 cells/3uL/well in 1536-well white plates using a Multidrop Dispenser. After the assay plates were incubated at a 37 C/5% CO2 incubator for 24 h, 1 uL of Ro20-1724 at final concentration of 0.1 mM was transferred to the assay plate by a Flying Reagent Dispenser. Following Ro20-1724 addition, 23 nL of compound dissolved in DMSO, positive controls or DMSO only was added to the assay plates via Wako pintool station. The assay plates were incubated at room temperature for 10 min. Next, 1 uL of NKH477 at 200nM was added into the plates. After the assay plates were incubated at room temperature for an additional 30 min, 2.5 ul/well of cAMP-d2 and 2.5 ul/well of anti-cAMP-cryptate were added respectively into the assay plates using a Flying Reagent Dispenser. The plates were incubated at room temperature for 1 h. The fluorescence intensity in the plates was measured at 340 nm excitation and 665 & 620 nm emission by an Envision plate reader.
% is set by controls: 0 for no effect and ±100 for the full control effect; potency is the fitted concentration of half-maximal effect.

Compound	Potency	activation
C[C@@H]1C[C@H]2[C@@H]3CCC4=CC(=O)C=C[C@]4(C)[C@@]3(F)[C@@H](O)C[C@]2(C)[C@@]1(O)C(=O)COC(=O)c1ccncc1	inconclusive: 33.5 µM [falling, single point]	–
C#CCN(C)CCCOc1ccc(Cl)cc1Cl	inconclusive: 3.76 µM	–
Cc1ccc(S(=O)(=O)O)cc1	–	inconclusive: 1.58%
Nc1ccc(Nc2ccccc2)cc1	inconclusive: 48.7 µM and inconclusive: 46.7 µM and inconclusive: 64.8 µM	–
Nc1ccc(S(=O)(=O)c2ccc(N)cc2)cc1	–	inconclusive: 7.96%
CCCCCCCCOc1ccc(C(=O)c2ccccc2)c(O)c1	–	inconclusive: 63.9% [at 42.5 µM]
CCCCC(CC)CO (stereo not given)	–	inconclusive: 2.75%
CN1CCCN(C(c2ccccc2)c2ccc(Cl)cc2)CC1 (stereo not given)	inactive	–
CCCC(CCC)(C(=O)OCC)C(=O)OCC	inconclusive: 26.6 µM	–
CCCCSCCCC	inactive	–
Cc1cccc(C)c1OCC(C)N (stereo not given)	–	inconclusive: 17.3% [at 42.5 µM]
OCCN1CCN(CC/C=C2/c3ccccc3Sc3ccc(C(F)(F)F)cc32)CC1	–	inconclusive: 0.356% [at 42.5 µM]
CC(C)(O)c1ccc(CNC(=O)c2cccnc2Oc2ccc3nonc3c2)cc1	–	inconclusive: -11.8%
Cc1ccc(Cl)cc1N	inactive	–
COc1ccc2cc(C=O)ccc2c1	inconclusive: 6.68 µM [falling, partial curve, poor fit]	–
O=C(O)C1(C(=O)O)CCC1.[NH2-].[NH2-].[Pt+2]	inconclusive: 29.8 µM [falling, single point]	–
CCOCC(O)COc1ccc(NC(=O)CC[S+](C)C)cc1 (stereo not given)	inconclusive: 4.73 µM	–
CCC(=O)O[C@]1(C(=O)COC)[C@@H](C)C[C@H]2[C@@H]3CCC4=CC(=O)C=C[C@]4(C)C3(F)[C@@H](O)C[C@@]21C (stereo not given in full)	–	inconclusive: -10.1% [at 42.5 µM]
COc1cc2[nH]c(=O)[nH]c(=O)c2cc1OC	–	inconclusive: 11.8% [at 42.5 µM]
Cc1cc(NC(=O)C(=O)O)cc(C)c1Oc1ccc(O)c2c1CCC2	inconclusive: 3.25 µM	–

Compound	Potency	activation
C[C@@H](CN(C)C)CN1c2ccccc2Sc2ccccc21	inconclusive: 33.5 µM [falling, partial curve]	–
CC1CCCO1 (stereo not given)	inactive	–
N=C1N=C(N)c2cc3ccccc3cc21	–	inconclusive: 51.6%
CCCCCCCC(=O)OCC(O)CO (stereo not given)	inactive	–
CC1CC(=O)NN=C1c1ccc(NCC(C)(C)NCC(O)COc2cc(Cl)ccc2C#N)cc1 (stereo not given)	–	inconclusive: -28.1% [at 42.5 µM]
COc1cc2c(cc1OC)-c1cc3ccc(OC)c(OC)c3c[n+]1CC2	inconclusive: 55.8 µM [partial curve]	–
CCN(CC)CCNC(=O)c1c(C)[nH]c(/C=C2\C(=O)Nc3ccc(F)cc32)c1C	inconclusive: 21.1 µM	–
Cc1c(O)cccc1O	inactive	–
CCCCCCC(CCCCCCCCCCC(=O)OCC(COC(C)=O)OC(C)=O)OC(C)=O (stereo not given)	inactive	–
CCCC(O)C(CC)CO (stereo not given)	inactive	–
CC(CC(C)(C)C)CC(C)(C)CC(C)(C)C (stereo not given)	inactive	–
CCOCCOCCO	inconclusive: 5.22 µM [falling, full curve, poor fit]	–
CCOC(=O)[C@H](CCc1ccccc1)N[C@H]1CS[C@H](c2cccs2)CN(CC(=O)O)C1=O	inconclusive: 26.6 µM [rising, partial curve, poor fit]	–
[Cl][Eu]([Cl])[Cl]	inconclusive: 48.6 µM	–
CN1CCC(N(Cc2cccs2)c2ccccc2)CC1	–	inconclusive: -17.7% [at 42.5 µM]
CCN(CC)CCNc1ccc(CO)c2sc3ccccc3c(=O)c12	inconclusive: 13.3 µM [rising, partial curve, poor fit]	–
CCC(C)Nc1ccc(NC(C)CC)cc1 (stereo not given)	inconclusive: 56.4 µM	–
Cc1ccc(C#N)cc1	inactive	–
CN(C)CCOCCO	inconclusive: 5.64 µM [falling, full curve, poor fit]	–
O=c1c(O)c(-c2ccc(O)cc2O)oc2cc(O)cc(O)c12	inconclusive: 64.5 µM [falling, partial curve, poor fit]	–

Two of the compounds above, comma-delimited.
Compound,Potency,activation
CCCCCCCC(=O)OCC(O)CO (stereo not given),inactive,–
CC1CC(=O)NN=C1c1ccc(NCC(C)(C)NCC(O)COc2cc(Cl)ccc2C#N)cc1 (stereo not given),–,inconclusive: -28.1% [at 42.5 µM]
